# Results published in the supplement of paper PMC4635364.
# Structures can show the parent of a compound that is named as a salt. The list shows a part of the results. This data set is noisy: repeats of one test often differ as much as different tests do.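 Cells: ReNCell VM human fetal ventral-midbrain neural progenitors, differentiated mitogen-free. Blinded raters compared doublecortin-stained (early neurons) or tyrosine hydroxylase-stained (dopaminergic neurons) images with untreated wells, where 0 means no change. After repeats and both raters were averaged, compounds scoring 2 or above became hits for retesting.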
# Legend:
# ReNCell VM [1] = assay: neuronal differentiation score (DCX+ cell fraction vs untreated, manual image score) (score (-3 to 3)); higher = more neuronal differentiation; details: 2 uM, 2 weeks
# ReNCell VM [2] = assay: dopaminergic neuron differentiation score (TH+ cell fraction vs untreated, manual image score) (score (0 to 3)); higher = more TH+ dopaminergic neuron differentiation; details: 2 uM, 4 weeks, BDNF 10 ng/ml + GDNF 10 ng/ml
structure (smiles),measurement,setting,value
C[C@@H]1O[C@@H](OC[C@H]2O[C@@H](Oc3c(-c4ccc(O)c(O)c4)oc4cc(O)cc(O)c4c3=O)[C@H](O)[C@@H](O)[C@@H]2O)[C@H](O)[C@H](O)[C@H]1O,neuronal differentiation score,ReNCell VM [1]; library: Spectrum,inactive: 0
same,dopaminergic neuron differentiation score,ReNCell VM [2]; library: Spectrum,inactive: 0
O=C1CC2(CCCC2)CC(=O)N1CCCCNCC1COc2ccccc2O1 (stereo unspecified),neuronal differentiation score,ReNCell VM [1]; library: Tocriscreen,inactive: 0
same,dopaminergic neuron differentiation score,ReNCell VM [2]; library: Tocriscreen,inactive: 0
CO/N=C(\C(=O)N[C@@H]1C(=O)N2C(C(=O)O)=C(CSc3nc(=O)c(O)nn3C)CS[C@H]12)c1csc(N)n1,neuronal differentiation score,ReNCell VM [1]; library: Spectrum,inactive: 0
same,dopaminergic neuron differentiation score,ReNCell VM [2]; library: Spectrum,inactive: 0
CC1CC(OC(=O)c2ccccc2O)CC(C)(C)C1 (stereo unspecified) [Homosalate],neuronal differentiation score,ReNCell VM [1]; library: Prestwick,inactive: 1
same,dopaminergic neuron differentiation score,ReNCell VM [2]; library: Prestwick,inactive: 0
N[C@@H](Cc1c[nH]c2ccccc12)C(=O)O,neuronal differentiation score,ReNCell VM [1]; library: Spectrum,inactive: 0
same,dopaminergic neuron differentiation score,ReNCell VM [2]; library: Spectrum,inactive: 0
NCCCCCCCCCCNS(=O)(=O)c1cccc2c(Cl)cccc12 [A-7 hydrochloride],neuronal differentiation score,ReNCell VM [1]; library: Tocriscreen,inactive: 0
same,dopaminergic neuron differentiation score,ReNCell VM [2]; library: Tocriscreen,inactive: 0
Oc1nc(-c2ccc(C(F)(F)F)cc2)nc2c1CSCC2,neuronal differentiation score,ReNCell VM [1]; library: Tocriscreen,inactive: 0
same,dopaminergic neuron differentiation score,ReNCell VM [2]; library: Tocriscreen,inactive: 0
CC(=O)NC[C@H]1CN(c2ccc(N3CCOCC3)c(F)c2)C(=O)O1 [Linezolid],neuronal differentiation score,ReNCell VM [1]; library: Prestwick,inactive: 0
same,dopaminergic neuron differentiation score,ReNCell VM [2]; library: Prestwick,inactive: 0

# An excerpt of these results, bar-delimited:
structure (smiles) | measurement | setting | value
NCCCCCCCCCCNS(=O)(=O)c1cccc2c(Cl)cccc12 [A-7 hydrochloride] | dopaminergic neuron differentiation score | ReNCell VM [2]; library: Tocriscreen | inactive: 0
Oc1nc(-c2ccc(C(F)(F)F)cc2)nc2c1CSCC2 | neuronal differentiation score | ReNCell VM [1]; library: Tocriscreen | inactive: 0
